Where “and” joins values, the source holds several entries; their conditions need not be identical. Equal entries are not always repeated.

This data set is described as follows: Effect on iron absorption in vivo of maltol as a diet supplement (liver iron). Also on record: species or system Male Wistar rats. The following applies: rats fed maltol 50 mg/kg by gavage on alternate days, individual animals 1-6. On the procedure: Male Wistar rats, housed in polyethylene cages, initially weighing 70-80 grams were given a normal powder diet and water ad libitum for two weeks prior to treatment with maltol by gavage. Provided the animal was showing normal growth, treatment by gavage with maltol at 50 mg/kg was commenced and continued on alternate days for a further two weeks. At the end of the experimental period the animals were sacrificed, the livers were excised, mass determined and the sub cellular fraction assayed for iron be electrothermal atomic absorption. […]. The iron content of the diet is 240 mg/kg of food and the daily consumption of the rats is approximately 20 g which contains 4.8 mg as iron. The content of maltol in the diet is approximately 10 mg which is a ratio of iron/maltol of 4.8/10.0 which is approximately a 1:1 molar ratio (actual 1:1 is 4.5/10/0).
The liver content and concentration of iron in the sub cellular fraction were compared with the control group fed the same diet over the month, but without maltol.

Consider `Cc1occc(=O)c1O` [Maltol, 3-hydroxy-2-methyl-4-pyrone], for which the Body wt is 200 g (5×) and 220 g; the Liver wt was 12.1 g and 10.1 g (2×) and 9.9 g and 11.3 g (2×).

(Values after patent US6635631B2, “Iron compounds, compositions, methods of making the same and uses thereof” (Vitra Pharmaceuticals, Ltd., priority 1995, dated 2003).)
